Test results from US20220348567A1, “NOVEL OXADIAZOLE COMPOUNDS CONTAINING 5- MEMBERED HETEROAROMATIC RING FOR CONTROLLING OR PREVENTING PHYTOPATHOGENIC FUNGI” (PI INDUSTRIES LTD., priority 2019, published 2022).
Some entries share one result that the patent states for a list of compounds.

test system: Pyricularia oryzae; assay type: cell-based; settings: 300 ppm; 7 days, 25° C., 60% relative humidity

Compound | control (radial growth compared to untreated control) [%]
O=C(Cc1cn(-c2ccc(-c3noc(C(F)(F)F)n3)cc2)cn1)N1CCCC1 [Compound 3, 1-(pyrrolidin-1-yl)-2-(1-(4-(5-(trifluoromethyl)-1,2,4-oxadiazol-3-yl)phenyl)-1H-imidazol-4-yl)ethan-1-one] | ≥ 70
Cc1cccc(S(C)(=O)=NC(=O)c2ccn(-c3ccc(-c4noc(C(F)(F)F)n4)cc3)c2)c1 (centres unmarked) [Compound 24, N-(methyl(oxo)(m-tolyl)-λ^6-sulfanylidene)-1-(4-(5-(trifluoromethyl)-1,2,4-oxadiazol-3-yl)phenyl)-1H-pyrrole-3-carboxamide] | ≥ 70
CS(=O)(=NC(=O)c1ccn(-c2ccc(-c3noc(C(F)(F)F)n3)cc2)c1)c1ccncc1F (centres unmarked) [Compound 28, N-((3-fluoropyridin-4-yl)(methyl)(oxo)-λ^6-sulfanylidene)-1-(4-(5-(trifluoromethyl)-1,2,4-oxadiazol-3-yl)phenyl)-1H-pyrrole-3-carboxamide] | ≥ 70
CS(=O)(=NC(=O)c1ccn(-c2ccc(-c3noc(C(F)(F)F)n3)cc2)c1)c1nccs1 (centres unmarked) [Compound 40, N-(methyl(oxo)(thiazol-2-yl)-λ^6-sulfanylidene)-1-(4-(5-(trifluoromethyl)-1,2,4-oxadiazol-3-yl)phenyl)-1H-pyrrole-3-carboxamide] | ≥ 70
FC(F)(F)c1nc(-c2ccc(-n3cnc(CSc4ccccc4)c3)cc2)no1 [Compound 43, 3-(4-(4-((phenylthio)methyl)-1H-imidazol-1-yl)phenyl)-5-(trifluoromethyl)-1,2,4-oxadiazole] | ≥ 70
